According to patent US20170137803:
For some of these results: No signal at the amounts used counts as a negative. For some of these results: Protein sequences can lack the tags named with them. For some of these results: Where cells or extracts were used, other partners may take part. For some of these results: For at least one entry, the source does not settle the construct or the ends of the probe.

Assays:
[1] = biological target: T1, PUF-R6(SYxxR) N1043S/Q1047R (Homo sapiens) (UniProt Q14671); experiment: binding assay; conditions: yeast three-hybrid; strongest target; protein in cells; protein details: Gal4 AD fusion; variant of NRE RNA
T1 sequence: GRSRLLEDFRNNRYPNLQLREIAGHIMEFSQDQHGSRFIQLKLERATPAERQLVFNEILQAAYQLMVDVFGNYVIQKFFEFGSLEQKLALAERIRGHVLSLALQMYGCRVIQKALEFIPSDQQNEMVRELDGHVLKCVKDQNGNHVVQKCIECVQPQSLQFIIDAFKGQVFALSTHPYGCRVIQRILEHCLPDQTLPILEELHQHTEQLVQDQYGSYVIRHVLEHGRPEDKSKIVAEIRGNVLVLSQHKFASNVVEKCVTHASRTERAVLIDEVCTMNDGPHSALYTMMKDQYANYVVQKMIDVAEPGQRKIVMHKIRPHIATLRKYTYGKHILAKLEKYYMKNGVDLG

[2] = biological target: PUF-E R1(SYxxR), R2(SYxxE), R3(NRxxQ), R5(SRxxE), R7(SYxxR), R8(SYxxE) (Homo sapiens) (UniProt Q14671); experiment: binding assay; conditions: yeast three-hybrid; control RNA (WT in FIG. 29C); protein in cells; protein details: Gal4 AD fusion
[3] = biological target: PUF-D R1(SRxxE), R3(SYxxR), R4(SYxxE), R5(NRxxQ), R6(SYxxR) (Homo sapiens) (UniProt Q14671); experiment: binding assay; conditions: yeast three-hybrid; control RNA (WT in FIG. 29C); protein in cells; protein details: Gal4 AD fusion
[4] = biological target: T2, ASRE(WT) (PUM1 PUF-PIN SMG6 fusion) (Homo sapiens) (UniProt Q14671); experiment: enzyme reaction in vitro; conditions: no cleavage; purified recombinant protein; protein details: His6 (removable); variant of NRE RNA
T2 sequence: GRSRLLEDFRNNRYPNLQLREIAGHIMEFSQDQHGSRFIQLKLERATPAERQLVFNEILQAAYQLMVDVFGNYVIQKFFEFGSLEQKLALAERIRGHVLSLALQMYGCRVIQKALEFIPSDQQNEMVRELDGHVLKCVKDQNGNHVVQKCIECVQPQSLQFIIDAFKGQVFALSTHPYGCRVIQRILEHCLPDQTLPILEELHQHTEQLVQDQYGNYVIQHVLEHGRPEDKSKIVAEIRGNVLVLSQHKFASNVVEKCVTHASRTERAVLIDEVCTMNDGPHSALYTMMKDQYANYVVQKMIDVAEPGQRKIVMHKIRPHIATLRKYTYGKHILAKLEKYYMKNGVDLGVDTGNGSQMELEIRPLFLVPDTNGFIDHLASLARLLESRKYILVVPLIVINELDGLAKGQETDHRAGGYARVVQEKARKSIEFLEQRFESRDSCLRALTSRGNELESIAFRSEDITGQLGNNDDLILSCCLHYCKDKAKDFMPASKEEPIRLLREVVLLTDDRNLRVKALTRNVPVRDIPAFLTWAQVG

UGCAUAUA [C3 RNA]: binds [1].

UGUAUAUA [NRE RNA]: no binding [2]; no binding [3].

With UUGAUAUA [7u6g RNA] the “activity on this sequence” value [4] was “not active”.
